Results as given in doi:10.1101/2021.10.11.463801.
These are yes or no findings as the source states them, for the method shown.

Protein sequences, listed by entry. Tags and fused reporters are not part of them. Residues count along the entry.
UniProt Q07866, residues 185-501: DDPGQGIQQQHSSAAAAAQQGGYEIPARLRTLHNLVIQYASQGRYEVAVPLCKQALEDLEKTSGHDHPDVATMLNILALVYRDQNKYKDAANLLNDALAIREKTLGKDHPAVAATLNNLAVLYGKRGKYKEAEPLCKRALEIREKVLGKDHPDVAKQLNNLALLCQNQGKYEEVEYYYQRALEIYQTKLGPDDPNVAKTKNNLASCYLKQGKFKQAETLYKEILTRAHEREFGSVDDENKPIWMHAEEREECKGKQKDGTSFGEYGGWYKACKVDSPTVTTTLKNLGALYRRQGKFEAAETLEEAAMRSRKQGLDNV

Target: GST-tagged KLC1[185-501] (human) (UniProt Q07866)
Test: pull-down

B1: mouse JIP3[186-505] L439P (domain or fragment, UniProt Q9ESN9-5 186-505)
chain: QVGGSGQTESSLPGRSRKERPTSLNVFPLADGMVRAQMGGKLVPAGDHWHLSDLGQLQSSSSYQCPNDEMSESGQSSAAATPSTTGTKSNTPTSSVPSAAVTPLNESLQPLGDYVSVTKNNKQAREKRNSRNMEVQVTQEMRNVSIGMGSSDEWSDVQDIIDSTPELDVCPETRLERTGSSPTQGIVNKAFGINTDSLYHELSTAGSEVIGDVDEGADLLGEFSGMGKEVGNLLLENSQLLETKNALNVVKNDPIAKVDQLSGEQEVLKGELEAAKQAKVKLENRIKELEEELKRVKSEAVTARREPREEVEDDKIPMAQ
binding: no binding
